Test results published in patent US11371077B2, “High throughput cell-based screening for aptamers” (MeiraGTx UK II Limited, priority 2016, dated 2022).

Tested on: add-G6 riboswitch
Assay: cells
Format: cell-based
Settings: Homo sapiens, HEK293, read-out: Fold Induction of luciferase activity
Text: A truncated human beta-globin intron sequence was synthesized and inserted in the coding sequence of a firefly luciferase gene. A mutant human DHFR exon 2 was synthesized and inserted in the middle of this truncated beta-globin intron sequence using Golden gate cloning strategy. Aptamers including xpt-G/A^1, ydhl-G/A^2, yxj^3, add^4, gdg6-G/A^5 (citations for the aptamers are incorporated herein by reference) were synthesized as oligonucleotides (“oligos”) with 4 nucleotide overhang at the 5′ end that are complementary to two different BsaI sites individually (IDT), annealed and ligated to BsaI-digested mDHFR-Luci-acceptor vector.
3.5×10^4 HEK 293 cells were plated in a 96-well flat bottom plate the day before transfection. Plasmid DNA (500 ng) was added to a tube or a 96-well U-bottom plate. […] Then, 50 μL of this diluted transfection reagent was added to the DNA, mixed, and incubated at RT for 20 min. Finally, 7 μL of this solution was added to a well of cells in the 96-well plate.
24 hours after media change, plates were removed from the incubator, and equilibrated to RT for several minutes on a lab bench, then aspirated. Glo-lysis buffer (Promega, 100 μL, RT) was added, and the plates maintained at RT for at least 5 minutes. […] Following a 5 min incubation at RT, luminescence was measured using a Tecan machine with 500 mSec read time. […]

Cc1cc(/C=C/c2ccc3cc(N(C)C)ccc3[n+]2C)c(C)n1-c1ccccc1 [Pyrvinium pamoate]
fold induction at 100 µM: 15.8
